{"source": "PubChem BioAssay AID256", "about": "(DTP/NCI, 2004)", "tested_on": "CD2F1 mice, L1210 leukemia ip, survival T/C", "experiment": "NCI In Vivo Anticancer Drug Screen. Data for tumor model L1210 Leukemia (intraperitoneal) in CD2F1 (CDF1) mice", "settings": "T/C endpoint: mean survival time, higher T/C = longer survival", "summary_of_the_method": "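Activity against a transplanted murine tumor was judged by comparing the compound group with a vehicle group. The outcome in the treated animals was divided by that in the controls.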", "note": "The list is a part of this screen's results and no random one: it gathers tests that were run many times, whatever their T/C, doses with no T/C, and many T/C values between a quarter and a half above the control. Further doses and runs are listed elsewhere. T/C is the treated group as % of the vehicle group. For survival time, this PubChem deposit counts one and a half times the control or more as active, and values a quarter to a half above the control carry no call in these data; other NCI protocols may use other cut-offs. Schedule codes are those of the source, taken here to give the interval after Q, in days (D) or hours (H), and the number of doses after X. Some T/C values carry the count of animals alive at the toxicity check (mostly the fifth day); without a count, all were alive then. Some entries were tested several times; the values are given in rising order. Additions like (4×) stand for listed records that agree."}
{"molecule": "S=c1nc[nH]c2nc[nH]c12", "values": [{"measurement": "T/C", "setting": "dose: 2.0 mg/kg/injection, schedule: Q03HX024 (ip), vehicle: alkali diluted with water", "result": "133 % of control"}, {"measurement": "T/C", "setting": "dose: 4.0 mg/kg/injection, schedule: Q01DX005 (ip), vehicle: alkali diluted with water", "result": "125 % of control"}, {"measurement": "T/C", "setting": "dose: 4.0 mg/kg/injection, schedule: Q03HX024 (ip), vehicle: alkali diluted with water", "result": "143 % of control"}, {"measurement": "T/C", "setting": "dose: 18.8 mg/kg/injection, schedule: Q01DX009 (ip), vehicle: alkali diluted with saline", "result": "127 % of control"}, {"measurement": "T/C", "setting": "dose: 20.0 mg/kg/injection, schedule: Q01DX005 (ip), vehicle: alkali diluted with saline, evaluated on day 30", "result": "107, 113, 114, 115, 122 % of control"}, {"measurement": "T/C", "setting": "dose: 20.0 mg/kg/injection, schedule: Q01DX005 (ip), vehicle: alkali diluted with saline, evaluated on day 45", "result": "115 % of control"}, {"measurement": "T/C", "setting": "dose: 20.0 mg/kg/injection, schedule: Q01DX005 (ip), vehicle: alkali diluted with water, evaluated on day 30, list 1 of 2", "result": "101, 102 (2×), 103, 104, 105 (2×), 106 (3×), 107, 108 (3×), 109, 110 (2×), 111 (2×), 112, 113 (2×), 114 (2×), 115, 116 (2×), 117 (4×), 118, 119, 120, 120 [5 of 6 alive], 121, 123, 130, 147, 174 % of control"}, {"measurement": "T/C", "setting": "dose: 20.0 mg/kg/injection, schedule: Q01DX005 (ip), vehicle: alkali diluted with water, evaluated on day 30, list 2 of 2", "result": "101 (2×), 102 (2×), 103, 105 (3×), 106 (2×), 107, 108 (2×), 108 [5 of 6 alive], 109, 110 (2×), 111 (3×), 113 (3×), 114 (2×), 115, 116, 117 (5×), 119 (2×), 120, 121, 122, 123, 139, 164 % of control"}, {"measurement": "T/C", "setting": "dose: 20.0 mg/kg/injection, schedule: Q01DX005 (ip), vehicle: alkali diluted with water, evaluated on day 45", "result": "108 % of control"}, {"measurement": "T/C", "setting": "dose: 20.0 mg/kg/injection, schedule: Q01DX005 (ip), vehicle: other, evaluated on day 30, list 1 of 2", "result": "89, 100, 104 (2×), 105 (2×), 106 (2×), 107, 108, 109 (3×), 110 (2×), 111 (3×), 112 (2×), 113, 114, 115 (2×), 117 (3×), 119 (2×), 120, 122, 124, 129, 134 % of control"}, {"measurement": "T/C", "setting": "dose: 20.0 mg/kg/injection, schedule: Q01DX005 (ip), vehicle: other, evaluated on day 30, list 2 of 2", "result": "95, 103, 104 (2×), 105, 106 (2×), 107, 108, 109 (3×), 110 (2×), 111 (3×), 112 (3×), 113 (2×), 114, 115 (2×), 117 (2×), 119 (2×), 120, 121, 123, 125, 130, 134 % of control"}, {"measurement": "T/C", "setting": "dose: 20.0 mg/kg/injection, schedule: Q01DX005 (ip), vehicle: other, evaluated on day 35", "result": "105 % of control"}, {"measurement": "T/C", "setting": "dose: 20.0 mg/kg/injection, schedule: Q01DX005 (ip), vehicle: other, evaluated on day 45", "result": "109 % of control"}, {"measurement": "T/C", "setting": "dose: 20.0 mg/kg/injection, schedule: Q01DX005 (ip), vehicle: saline with Tween-80", "result": "125 % of control [5 of 6 alive]"}, {"measurement": "T/C", "setting": "dose: 20.0 mg/kg/injection, schedule: Q01DX005 (ip), vehicle: saline", "result": "130 and 144 % of control"}, {"measurement": "T/C", "setting": "dose: 20.0 mg/kg/injection, schedule: Q01DX009 (ip), vehicle: alkali diluted with saline", "result": "129 % of control"}, {"measurement": "T/C", "setting": "dose: 20.0 mg/kg/injection, schedule: Q01DX009 (ip), vehicle: other", "result": "131 % of control [5 of 6 alive]"}, {"measurement": "T/C", "setting": "dose: 37.5 mg/kg/injection, schedule: Q01DX009 (ip), vehicle: alkali diluted with saline", "result": "139 % of control"}, {"measurement": "T/C", "setting": "dose: 40.0 mg/kg/injection, schedule: Q01DX005 (ip), vehicle: alkali diluted with saline, evaluated on day 30", "result": "107, 122, 128, 136, 138 % of control"}, {"measurement": "T/C", "setting": "dose: 40.0 mg/kg/injection, schedule: Q01DX005 (ip), vehicle: alkali diluted with saline, evaluated on day 45", "result": "134 % of control"}, {"measurement": "T/C", "setting": "dose: 40.0 mg/kg/injection, schedule: Q01DX005 (ip), vehicle: alkali diluted with water, evaluated on day 30, list 1 of 2", "result": "105, 110, 111, 112, 113, 114, 115 (3×), 116, 118 (3×), 119, 120 (2×), 121, 122, 123 (3×), 124, 125, 126, 127 (2×), 128, 128 [5 of 6 alive], 129 [5 of 6 alive], 131, 132 (2×), 133 [5 of 6 alive], 135, 139, 141, 148, 162, 170, 181 % of control"}, {"measurement": "T/C", "setting": "dose: 40.0 mg/kg/injection, schedule: Q01DX005 (ip), vehicle: alkali diluted with water, evaluated on day 30, list 2 of 2", "result": "102 [5 of 6 alive], 106, 111 (2×), 112, 113 (2×), 114, 115 (2×), 116 (2×), 118 (2×), 119 (2×), 120, 121, 122 (2×), 123 (2×), 124, 125, 126, 127 (3×), 128, 129 [2 of 3 alive], 130, 132 (2×), 133 (2×), 137, 139 [5 of 6 alive], 143, 159, 168, 178 % of control"}, {"measurement": "T/C", "setting": "dose: 40.0 mg/kg/injection, schedule: Q01DX005 (ip), vehicle: alkali diluted with water, evaluated on day 45", "result": "119 % of control"}, {"measurement": "T/C", "setting": "dose: 40.0 mg/kg/injection, schedule: Q01DX005 (ip), vehicle: other, evaluated on day 30, list 1 of 2", "result": "108, 110 [5 of 6 alive], 111, 112, 113 (2×), 114, 115 (2×), 118 (2×), 119 (2×), 120 (2×), 121 (2×), 122 (2×), 123, 124, 126, 127 (3×), 130, 131, 132, 136, 140, 142, 147, 150, 160 % of control"}, {"measurement": "T/C", "setting": "dose: 40.0 mg/kg/injection, schedule: Q01DX005 (ip), vehicle: other, evaluated on day 30, list 2 of 2", "result": "107, 109, 111, 112 (2×), 113 (2×), 114 (2×), 115, 117, 118, 119 (2×), 120 (3×), 121, 122 (2×), 123, 124, 125 [5 of 6 alive], 126, 127 (2×), 128, 131, 132 (2×), 136, 142, 144, 147, 153 % of control"}, {"measurement": "T/C", "setting": "dose: 40.0 mg/kg/injection, schedule: Q01DX005 (ip), vehicle: other, evaluated on day 35", "result": "115 % of control"}, {"measurement": "T/C", "setting": "dose: 40.0 mg/kg/injection, schedule: Q01DX005 (ip), vehicle: other, evaluated on day 45", "result": "143 % of control"}, {"measurement": "T/C", "setting": "dose: 40.0 mg/kg/injection, schedule: Q01DX005 (ip), vehicle: saline with Tween-80", "result": "141 % of control"}, {"measurement": "T/C", "setting": "dose: 40.0 mg/kg/injection, schedule: Q01DX005 (ip), vehicle: saline", "result": "128 % of control"}, {"measurement": "T/C", "setting": "dose: 40.0 mg/kg/injection, schedule: Q01DX007 (ip), vehicle: saline", "result": "128 % of control"}, {"measurement": "T/C", "setting": "dose: 40.0 mg/kg/injection, schedule: Q01DX009 (ip), vehicle: alkali diluted with saline", "result": "130 % of control [5 of 6 alive]"}, {"measurement": "T/C", "setting": "dose: 40.0 mg/kg/injection, schedule: Q01DX009 (ip), vehicle: alkali diluted with water", "result": "127 and 129 % of control"}, {"measurement": "T/C", "setting": "dose: 40.0 mg/kg/injection, schedule: Q01DX009 (ip), vehicle: saline", "result": "130 % of control"}, {"measurement": "T/C", "setting": "dose: 40.0 mg/kg/injection, schedule: Q04DX002 (ip), vehicle: saline", "result": "129 % of control"}, {"measurement": "T/C", "setting": "dose: 44.0 mg/kg/injection, schedule: Q04DX003 (ip), vehicle: saline", "result": "147 % of control"}]}
